# Laboratory results as given in the supplement of paper PMC8728848.
# The other results are listed elsewhere or left out.
# What was measured:
# Assay in all cases: glycan array binding signal (z-score within array); higher = stronger binding
# Conditions in all cases: glycan notation: IUPAC condensed, linker removed
# [1] = biological target: Fuc(a1-2)Gal(b1-4)GlcNAc(b1-3)Gal(b1-4)GlcNAc(b1-3)Gal(b1-4)GlcNAc
# Outline: (§1)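 The binding signal is a Z-score computed within each array. Data were drawn from 3228 arrays in the Consortium for Functional Glycomics database, restricted to those with a known protein sequence. Scores were averaged over arrays of the same protein sequence at different concentrations or buffers, and over linkers, and negative values can be taken as non-binding.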
# [2] = biological target: Fuc(a1-2)Gal(b1-4)GlcNAc(b1-3)GalNAc
# Outline: as §1
# [3] = biological target: Fuc(a1-2)Gal(b1-4)GlcNAc(b1-3)[Fuc(a1-2)Gal(b1-4)GlcNAc(b1-6)]GalNAc
# Outline: as §1
# [4] = biological target: Fuc(a1-2)Gal(b1-4)GlcNAc(b1-3)[Fuc(a1-3)[Gal(b1-4)]GlcNAc(b1-6)]Gal(b1-4)Glc
# Outline: as §1
# [5] = biological target: Fuc(a1-2)Gal(b1-4)GlcNAc(b1-6)GalNAc
# Outline: as §1
# [6] = biological target: Fuc(a1-2)Gal(b1-4)GlcNAc6S
# Outline: as §1
# [7] = biological target: Fuc(a1-2)Gal(b1-4)[Fuc(a1-3)]GlcNAc
# Outline: as §1
# [8] = biological target: Fuc(a1-2)Gal(b1-4)[Fuc(a1-3)]GlcNAc(b1-2)Man(a1-3)[Fuc(a1-2)Gal(b1-4)[Fuc(a1-3)]GlcNAc(b1-2)Man(a1-6)]Man(b1-4)GlcNAc(b1-4)[Fuc(a1-6)]GlcNAc
# Outline: as §1
# [9] = biological target: Fuc(a1-2)Gal(b1-4)[Fuc(a1-3)]GlcNAc(b1-2)[Fuc(a1-2)Gal(b1-4)[Fuc(a1-3)]GlcNAc(b1-4)]Man(a1-3)[Fuc(a1-2)Gal(b1-4)[Fuc(a1-3)]GlcNAc(b1-2)Man(a1-6)]Man(b1-4)GlcNAc(b1-4)GlcNAc
# Outline: as §1
# [10] = biological target: Fuc(a1-2)Gal(b1-4)[Fuc(a1-3)]GlcNAc(b1-3)Gal(b1-4)[Fuc(a1-3)]GlcNAc
# Outline: as §1
# [11] = biological target: Fuc(a1-2)Gal(b1-4)[Fuc(a1-3)]GlcNAc(b1-3)Gal(b1-4)[Fuc(a1-3)]GlcNAc(b1-3)Gal(b1-4)[Fuc(a1-3)]GlcNAc
# Outline: as §1
# [12] = biological target: Fuc(a1-2)Gal(b1-4)[Fuc(a1-3)]GlcNAc(b1-3)GalNAc
# Outline: as §1
# [13] = biological target: Fuc(a1-2)Gal(b1-4)[Fuc(a1-3)]GlcNAc(b1-3)[Neu5Ac(a2-6)Gal(b1-4)GlcNAc(b1-6)]Gal(b1-4)Glc
# Outline: as §1
# [14] = biological target: Fuc(a1-2)Gal3S(b1-4)GlcNAc
# Outline: as §1
# [15] = biological target: Fuc(a1-2)Gal6S(b1-3)GlcNAc
# Outline: as §1
# [16] = biological target: Fuc(a1-2)Gal6S(b1-3)GlcNAc6S
# Outline: as §1
# [17] = biological target: Fuc(a1-2)Gal6S(b1-4)Glc
# Outline: as §1
# [18] = biological target: Fuc(a1-2)Gal6S(b1-4)Glc6S
# Outline: as §1
# [19] = biological target: Fuc(a1-2)[Gal(a1-3)]Gal
# Outline: as §1
# [20] = biological target: Fuc(a1-2)[Gal(a1-3)]Gal(b1-3)GalNAc
# Outline: as §1
# [21] = biological target: Fuc(a1-2)[Gal(a1-3)]Gal(b1-3)GalNAc(b1-3)Gal(a1-4)Gal(b1-4)Glc
# Outline: as §1
# [22] = biological target: Fuc(a1-2)[Gal(a1-3)]Gal(b1-3)GlcNAc
# Outline: as §1
# [23] = biological target: Fuc(a1-2)[Gal(a1-3)]Gal(b1-3)GlcNAc(b1-2)Man(a1-3)[Fuc(a1-2)[Gal(a1-3)]Gal(b1-3)GlcNAc(b1-2)Man(a1-6)]Man(b1-4)GlcNAc(b1-4)GlcNAc
# Outline: as §1
# [24] = biological target: Fuc(a1-2)[Gal(a1-3)]Gal(b1-3)GlcNAc(b1-2)Man(a1-3)[Fuc(a1-2)[Gal(a1-3)]Gal(b1-3)GlcNAc(b1-2)Man(a1-6)]Man(b1-4)GlcNAc(b1-4)[Fuc(a1-6)]GlcNAc
# Outline: as §1
# [25] = biological target: Fuc(a1-2)[Gal(a1-3)]Gal(b1-3)GlcNAc(b1-3)GalNAc
# Outline: as §1
# [26] = biological target: Fuc(a1-2)[Gal(a1-3)]Gal(b1-3)GlcNAc(b1-6)GalNAc
# Outline: as §1
# [27] = biological target: Fuc(a1-2)[Gal(a1-3)]Gal(b1-4)Glc
# Outline: as §1
# [28] = biological target: Fuc(a1-2)[Gal(a1-3)]Gal(b1-4)GlcNAc
# Outline: as §1
# [29] = biological target: Fuc(a1-2)[Gal(a1-3)]Gal(b1-4)GlcNAc(b1-2)Man
# Outline: as §1
# [30] = biological target: Fuc(a1-2)[Gal(a1-3)]Gal(b1-4)GlcNAc(b1-2)Man(a1-3)[Fuc(a1-2)[Gal(a1-3)]Gal(b1-4)GlcNAc(b1-2)Man(a1-6)]Man(b1-4)GlcNAc(b1-4)GlcNAc
# Outline: as §1
binder,measurement,setting,value
Pbx1CASH domain (Cryptococcus neoformans) (protein) MDETKPLWGNPRADGISLACKDSIVERNVVYDATDGAIVLFGSAGSTVKNNHVYARTRVILGGINLVDYEPWDGDYTNVKVHHNHLYALGRYFKVGIVIGPASWSDDTESVVHSASVTDNEFSGGYWGYGIVVASAKNFEVLRNKVIWDGEQGVARFSGVPGS,glycan array binding signal (z-score),[1],-0.379
same,glycan array binding signal (z-score),[2],-0.241
same,glycan array binding signal (z-score),[3],0.022
same,glycan array binding signal (z-score),[4],-0.729
same,glycan array binding signal (z-score),[5],-0.331
same,glycan array binding signal (z-score),[6],-0.382
same,glycan array binding signal (z-score),[7],-0.451
same,glycan array binding signal (z-score),[8],-0.203
same,glycan array binding signal (z-score),[9],0.549
same,glycan array binding signal (z-score),[10],0.33
same,glycan array binding signal (z-score),[11],-0.167
same,glycan array binding signal (z-score),[12],2.39
same,glycan array binding signal (z-score),[13],1.05
same,glycan array binding signal (z-score),[14],-0.881
same,glycan array binding signal (z-score),[15],-0.195
same,glycan array binding signal (z-score),[16],2.12
same,glycan array binding signal (z-score),[17],-0.089
same,glycan array binding signal (z-score),[18],-0.361
same,glycan array binding signal (z-score),[19],-0.086
same,glycan array binding signal (z-score),[20],-0.524
same,glycan array binding signal (z-score),[21],0.227
same,glycan array binding signal (z-score),[22],-0.239
same,glycan array binding signal (z-score),[23],-0.5
same,glycan array binding signal (z-score),[24],1.03
same,glycan array binding signal (z-score),[25],0.108
same,glycan array binding signal (z-score),[26],-0.739
same,glycan array binding signal (z-score),[27],-0.317
same,glycan array binding signal (z-score),[28],-0.382
same,glycan array binding signal (z-score),[29],-0.005
same,glycan array binding signal (z-score),[30],-0.744

# Given with bars between the fields: entries from further up.
binder | measurement | setting | value
Pbx1CASH domain (Cryptococcus neoformans) (protein) MDETKPLWGNPRADGISLACKDSIVERNVVYDATDGAIVLFGSAGSTVKNNHVYARTRVILGGINLVDYEPWDGDYTNVKVHHNHLYALGRYFKVGIVIGPASWSDDTESVVHSASVTDNEFSGGYWGYGIVVASAKNFEVLRNKVIWDGEQGVARFSGVPGS | glycan array binding signal (z-score) | [28] | -0.382
same | glycan array binding signal (z-score) | [29] | -0.005
